PubChem BioAssay AID504808 | Drosophila RNAi Screening Center | 2011
Purpose: 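Chromatin factors that keep E2F targets switched off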 (primary screen). Cells: Drosophila S2 cells. Knock-down reagent: long dsRNA against Drosophila genes. Measured: 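Dual luciferase plate measurements; E2F-specific signal taken as firefly over Renilla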. Reading the numbers: E2F firefly: higher = more E2F reporter activity; Renilla normaliser: higher = more normaliser reporter signal. Hit rule: 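Called active if the normalised E2F reporter went up by over 50%; the cutoff is arbitrary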.
In all, the deposit lists about 21,000 reagents; shown is a random part of those with a known target gene and a result. In the full data, 18 (0.084%) were called active. 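Raw counts without plate normalisation, one of two replicates; the ratio scores behind the calls were not deposited.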 The numbers tell different reagents against one gene apart. A plus sign joins genes that one reagent is predicted to hit. Not given: the amount of reagent, the time to read-out.

predicted target	reagent	E2F firefly, rep 1	Renilla normaliser, rep 1	Call
Mcr (Macroglobulin complement-related)	1	1.04e5	3866	inactive
CG11334	1	72733	2599	inactive
CG11334	2	55795	4173	inactive
CG4465	1	1.35e5	7077	inactive
CG33702	1	1.27e5	4477	inactive
CG4949	1	1.68e5	10318	inactive
Ubc84D (Ubiquitin conjugating enzyme 84D)	1	1.44e5	5861	inactive
ATPsynE (ATP synthase, subunit E)	1	76836	3605	inactive
Hou (Houki)	1	1.48e5	5796	inactive
Ltn1 (Listerin E3 ubiquitin protein ligase 1)	1	83545	3546	inactive
Ltn1 (Listerin E3 ubiquitin protein ligase 1)	2	1.30e5	6566	inactive
CG34266	1	1.26e5	4196	inactive
CG9806	1	1.36e5	5927	inactive
CG31510	1	1.21e5	6579	inactive
CG42502 + CG10570	1	93823	4214	inactive
CG32681	1	90197	2684	inactive
mRpL49 (mitochondrial ribosomal protein L49)	1	1.03e5	5807	inactive
Ugt49B2 (UDP-glycosyltransferase family 49 member B2)	1	1.46e5	7333	inactive
Myd88	1	2754	176	inactive
CG9864	1	1.34e5	5061	inactive
CG32599	1	8038	784	inactive
betaNACtes2 (Nascent-associated complex beta-subunit-like, testis 2)	1	2.41e5	7762	inactive
CG30289	1	1.28e5	4092	inactive
CG15528	1	1.34e5	6281	inactive
Alp5 (Alkaline phosphatase 5)	1	62458	3361	inactive
Rel (Relish)	1	81685	4126	inactive
Mkk4 (MAP kinase kinase 4)	1	1.44e5	6956	inactive
CG32119	1	1.48e5	4161	inactive
fl(2)d (female lethal d)	1	96034	4196	inactive
out (outsiders)	1	1.64e5	5676	inactive
CG12239	1	8087	892	inactive
CG42376 + cin	1	1810	988	inactive
mthl12 (methuselah-like 12)	1	97899	2568	inactive
CG10920	1	45001	2945	inactive

Part of the list above, showing only “E2F firefly, rep 1”:
CG11334 #1: 72733
CG11334 #2: 55795
